{"source": "paper PMC12670160", "about": "“A drug-repurposing screen of FDA- and EMA-approved drugs identifies two NF-κB inhibitors active against eumycetoma” (Journal of Antimicrobial Chemotherapy, 2025)", "note": "Structures can show the parent of a compound that is named as a salt. The whole screen tested about 5,300 compounds, of which about 130 (2.5%) showed an effect of 50% or more. Some of the results follow."}
{"test_system": "M. mycetomatis strain mm55", "details": "primary screen, metabolic activity vs growth control; 96 h, 2 µM; inhibitor", "units": {"% viability": "%"}}
{"compound": "CCc1cc(C(C)=O)c(O)cc1OCCCCCC(C)(C)c1nn[nH]n1", "note": "[ONC0000139, ly255283]", "% viability": 63.1}
{"compound": "O=C(NNC(=O)c1ccc(CNS(=O)(=O)c2ccc(F)c(Cl)c2)cc1)c1ccccc1", "note": "[ONC0002670, tcn201]", "% viability": 98.19}
{"compound": "O=C(Cn1ccnc1[N+](=O)[O-])NCCO", "note": "[ONC0002957, etanidazole]", "% viability": 131.1}
{"compound": "C[C@@H](N)[C@H]1CC[C@H](C(=O)Nc2ccncc2)CC1", "note": "[ONC0000092, y27632]", "% viability": 65.25}
{"compound": "N#Cc1c(N2C[C@@H]3NCCO[C@H]3C2)c(F)cc2c(=O)c(C(=O)O)cn(C3CC3)c12", "note": "[ONC0003702, 8cyano1cyclopropyl6fluoro74as7ashexahydropyrrolo34b14oxazin62hyl4oxo14dihydroquinoline3carboxylic acid]", "% viability": 89.13}
{"compound": "C[C@H](NC(=O)c1sccc1OCc1ccc(Cl)cc1)c1ccccc1", "note": "[ONC0002601, as1949490]", "% viability": 95.03}
{"compound": "O=c1cc(-c2ccc(O)cc2)oc2cc(O)cc(O)c12", "note": "[ONC0000851, apigenin]", "% viability": 76.29}
{"compound": "O=C(NC(=O)c1c(F)cccc1F)Nc1cc(Cl)c(OC(F)(F)C(F)C(F)(F)F)cc1Cl", "note": "(stereo not drawn) [ONC0003984, lufenuron]", "% viability": 72.45}
{"compound": "CNCC(=O)c1ccc(O)c(O)c1", "note": "[ONC0005368, adrenalone hydrochloride]", "% viability": 116.7}
{"compound": "Oc1cccc(Nc2ncc(F)c(Nc3cccc(O)c3)n2)c1", "note": "[ONC0001120, r112]", "% viability": 54.84}
{"compound": "NC(=O)N1c2ccccc2C=Cc2ccccc21", "note": "[ONC0000771, carbamazepine]", "% viability": 64.37}
{"compound": "COc1ccc2cc1Oc1cc3c(cc1OC)CC[N+](C)(C)[C@H]3Cc1ccc(cc1)Oc1c(OC)c(OC)cc3c1[C@@H](C2)[N+](C)(C)CC3", "note": "[ONC0003823, metocurine]", "% viability": 60.87}
{"compound": "CC(C)n1nc(-c2cc3cc(O)ccc3[nH]2)c2c(N)ncnc21", "note": "[ONC0004935, torkinib pp242]", "% viability": 79.77}
{"compound": "Cc1ncc[nH]1", "note": "[ONC0002814, 2methyl1himidazole]", "% viability": 94.03}
{"compound": "Oc1ccc(CC2NCCc3cc(O)c(O)cc32)cc1", "note": "(stereo not drawn) [ONC0003672, 67dihydroxy14hydroxybenzyl1234tetrahydroisoquinoline hydrochloride]", "% viability": 58.02}
{"compound": "Clc1ccc(C(Cn2ccnc2)OCc2c(Cl)cccc2Cl)c(Cl)c1", "note": "(stereo not drawn) [Isoconazole nitrate (Travogen), Isoconazole nitrate]", "% viability": 2.362}
{"compound": "C=CC(=O)N1CCN(C(=O)CNc2cc(I)c(Cl)cc2O)CC1", "note": "[ONC0001008, krasg12c inhibitor 12]", "% viability": 62.44}
{"compound": "N#Cc1ccccc1OCC(O)CNCCNC(=O)Nc1ccccc1", "note": "(stereo not drawn) [ONC0000133, ici89406]", "% viability": 114}
{"compound": "NC(CO)(CO)CO", "note": "[ONC0003339, tromethamine]", "% viability": 75.13}
{"compound": "COc1ccc(C2CNC(=O)NC2)cc1O[C@H]1C[C@@H]2CC[C@H]1C2", "note": "[ONC0003814, atizoram]", "% viability": 68.47}
{"compound": "C[C@H](N/C(=N/C#N)Nc1cccc2ncccc12)c1ccccc1", "note": "[ONC0002704, a804598]", "% viability": 92.66}
{"compound": "COc1c(O[C@@H]2O[C@H](CO)[C@@H](O)[C@H](O)[C@H]2O)cc2c(c1OC)-c1ccc(SC)c(=O)cc1[C@@H](NC(C)=O)CC2", "note": "[ONC0002938, thiocolchicoside]", "% viability": 63.55}
{"compound": "CN(C)CCN(Cc1cccs1)c1ccccn1", "note": "[ONC0002820, methapyrilene hydrochloride]", "% viability": 107.8}
{"compound": "CC(C)N(CCNC(=O)CN1CCCC1=O)C(C)C", "note": "[ONC0004970, pramiracetam]", "% viability": 88.61}
{"compound": "O=C(CCCCCCNC(=O)c1cnc(N(c2ccccc2)c2ccccc2)nc1)NO", "note": "[ONC0004325, acy1215]", "% viability": 107}
{"compound": "O=c1ncccn1[C@@H]1O[C@H](CO)[C@@H](O)[C@H]1O", "note": "[ONC0003589, zebularine]", "% viability": 90.24}
{"compound": "CC(=O)N[C@H]1CSSC[C@@H](C(N)=O)NC(=O)[C@H](C(C)C)NC(=O)[C@H](C)NC(=O)[C@H](Cc2c[nH]cn2)NC1=O", "note": "[ONC0005515, adh1 trifluoroacetate]", "% viability": 113.1}
{"compound": "O=C(O)Cc1ccc2c(c1)C(=O)c1ccccc1CO2", "note": "[ONC0003681, isoxepac]", "% viability": 47.44}
{"compound": "Clc1cccc(-c2nnnn2Cc2cccnc2)c1Cl", "note": "[ONC0000038, a438079]", "% viability": 80.64}
{"compound": "Cc1nc2ccccc2n1Cc1ccc(Cl)cc1", "note": "[ONC0002435, chlormidazole]", "% viability": 114.6}
{"compound": "OCCCNc1cc(-c2ccnc(Nc3cccc(Cl)c3)n2)ccn1", "note": "[cgp60474]", "% viability": 9.09}
{"compound": "O=C(O)CCc1ccc(NCc2cccc3c2CCCN3CCOc2ccccc2)cc1F", "note": "[ONC0000379, as2034178]", "% viability": 102}
{"compound": "COc1cccc(-c2ccc(NC(=O)C3=C(C(=O)O)CCC3)c(F)c2)c1", "note": "[ONC0000849, vidofludimus]", "% viability": 90.53}
{"compound": "CNC(=O)c1cc2c(cn1)[nH]c1ccccc12", "note": "[ONC0001365, fg7142]", "% viability": 83.05}
{"compound": "Cc1cc(=O)oc2cc(O)ccc12", "note": "[ONC0005290, hymechrome]", "% viability": 126.1}
{"compound": "C/C=C1/[C@H](O[C@@H]2O[C@H](CO)[C@@H](O)[C@H](O)[C@H]2O)OC=C(C(=O)OC)[C@H]1CC(=O)OCCc1ccc(O)c(O)c1", "note": "[ONC0004317, oleuropein]", "% viability": 79.4}
{"compound": "CCCCNc1ncc(-c2ccc(CN3CCOCC3)cn2)c(N[C@H]2CC[C@H](O)CC2)n1", "note": "[ONC0004973, unc2250]", "% viability": 62.2}
{"compound": "CCCN[C@H]1CCc2nc(N)sc2C1", "note": "[ONC0004678, pramipexole dihydrochloride monohydrate]", "% viability": 97.76}
{"compound": "CC(C)(C)Cn1c(N)nc2ccc(-c3[nH]c(C(C)(C)C)nc3-c3ccc(F)cc3)nc21", "note": "[ONC0004578, ly2228820]", "% viability": 70}
{"compound": "O=C(NC1CCN(CCCCC2(C(=O)NCC(F)(F)F)c3ccccc3-c3ccccc32)CC1)c1ccccc1-c1ccc(C(F)(F)F)cc1", "note": "[ONC0000828, lomitapide]", "% viability": 68.32}
{"compound": "COc1ccc(C(=O)CC2(O)C(=O)Nc3c(Cl)ccc(Cl)c32)cc1", "note": "(stereo not drawn) [ONC0001202, yk4279]", "% viability": 76.17}
{"compound": "O=C(NCc1ccccc1)OCCO", "note": "[ONC0004040, buramate]", "% viability": 78.81}
{"compound": "CSc1nc(NC2CCCC2)c([N+](=O)[O-])c(NC2CCCC2)n1", "note": "[ONC0000743, gs39783]", "% viability": 53.67}
{"compound": "CCC(CC)Nc1nc(C)c(-c2ccc(OC(F)(F)F)cc2OC)nc1OC", "note": "[ONC0000233, ngd982]", "% viability": 64.62}
{"compound": "CCOC(=O)c1ccc(OC(=O)CCCCCNC(=N)N)cc1", "note": "[ONC0004260, gabexate mesylate]", "% viability": 78.39}
{"compound": "CCCCC[C@H](O)/C=C/[C@@H]1[C@@H](C/C=C\\CCCC(=O)O)[C@@H](O)C[C@H]1O", "note": "[ONC0005469, prostaglandin f2]", "% viability": 112.2}
{"compound": "CCSC(=N)N", "note": "[ONC0003855, ethylsulfanylmethanimidamide hydrobromide]", "% viability": 78.35}
{"compound": "O=C(c1cccc(Br)c1)N1CCC(N2CCCC2)CC1", "note": "[ONC0004289, unc926]", "% viability": 61.43}
{"compound": "CC(=O)c1ccc(S(=O)(=O)NC(=O)NC2CCCCC2)cc1", "note": "[ONC0003935, acetohexamide]", "% viability": 59.74}
{"compound": "CCOc1ccc(/C=C2\\NCCc3cc(OCC)c(OCC)cc32)cc1OCC", "note": "[ONC0003467, drotaverine]", "% viability": 71.51}
{"compound": "Cc1c(-c2ccnn2C)cc(C(=O)NCc2ccc(S(C)(=O)=O)cn2)c(=O)n1-c1cccc(C(F)(F)F)c1", "note": "[ONC0002063, alvelestat]", "% viability": 61.26}
{"compound": "COc1cc(/C=C/C(=O)N2CCN(CC(=O)N3CCCC3)CC2)cc(OC)c1OC", "note": "[ONC0004539, cinepazide maleate]", "% viability": 60.96}
{"compound": "O=C(Nc1ccc(OC(F)(F)F)cc1)c1sccc1NCc1ccnc2ccccc12", "note": "[ONC0004370, osi930]", "% viability": 101.3}
{"compound": "CCCCCCCCCCCCCCCCCCOP(=O)([O-])OC1CC[N+](C)(C)CC1", "note": "[ONC0001843, perifosine]", "% viability": 106.4}
{"compound": "CC(=O)Nc1cccc2c1c(Sc1ccc(Cl)cc1)c(C)n2CC(=O)O", "note": "[ONC0005177, azd1981]", "% viability": 103.4}
{"compound": "CCCNC(C)C(=O)Nc1ccccc1C", "note": "(stereo not drawn) [ONC0002873, prilocaine hydrochloride]", "% viability": 82.79}
{"compound": "COc1ccc(CN(CCN(C)C)c2ccccn2)cc1", "note": "[ONC0003389, pyrilamine maleate]", "% viability": 74.7}
{"compound": "CC(COc1ccccc1)N(CCCl)Cc1ccccc1", "note": "(stereo not drawn) [ONC0001845, phenoxybenzamine hydrochloride]", "% viability": 103.3}
{"compound": "Nc1ncn([C@@H]2O[C@H](CO)[C@@H](O)[C@H]2O)c(=O)n1", "note": "[ONC0004088, azacitidine]", "% viability": 123.9}
{"compound": "Cn1c(=O)cc(N2CCC[C@@H](N)C2)n(Cc2cc(F)ccc2C#N)c1=O", "note": "[ONC0004490, trelagliptin]", "% viability": 51.25}
{"compound": "CC(C)(C)CC(=O)Nc1c(F)cc(C(=O)/N=c2\\sccn2COP(=O)(O)O)cc1F", "note": "[ONC0000160, luaa47070]", "% viability": 102.6}
{"compound": "CC(C)(C)c1[nH]cnc1/C=c1\\[nH]c(=O)/c(=C/c2ccccc2)[nH]c1=O", "note": "[ONC0000419, plinabulin]", "% viability": 52.18}
{"compound": "COc1cc2c(Oc3ccc4[nH]c(C)cc4c3F)ccnc2cc1OCC1(N)CC1", "note": "[ONC0001260, anlotinib]", "% viability": 64.67}
